Test results reported in patent US8501816B2, “Antitussive compositions comprising memantine” (Cerecor, Inc., priority 2010, dated 2013).

Test system: citric acid induced cough
Assay: Citric acid induced cough in conscious guinea pigs
Settings: for Mean ± sem cumulative coughs / ≧15 Cumulative coughs/total number of guinea pigs: potentially synergistic agents

Compound: CN(C)CCOC(c1ccccc1)c1ccccc1 [Diphenhydramine]
- Mean ± sem cumulative coughs (10 mg/kg po): 25 ± 5
- ≧15 Cumulative coughs/total number of guinea pigs (10 mg/kg po): 3/3
- Mean ± sem cumulative coughs (30 mg/kg po): 12 ± 2
- ≧15 Cumulative coughs/total number of guinea pigs (30 mg/kg po): 2/6
- ≧15 Cumulative coughs/total number of guinea pigs (100 mg/kg po): 0/5
- Effect of single agent on citric acid (0.01-0.3M) induced cough (oral, 60 minutes prior, memantine 3, guaifenesin 100, diphenhydramine 10, benzonatate 30, ambroxol 100 mg/kg): failed to inhibit cough
